# The supplement of paper PMC8728848
# Some of the results follow.
# How the values were obtained:
# Experiment in all cases: glycan array binding signal (z-score within array); higher = stronger binding
# Details in all cases: glycan notation: IUPAC condensed, linker removed
# Gal6S(b1-4)Glc = molecular target: Gal6S(b1-4)Glc
# In short: (§1)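 The binding signal is a Z-score computed within each array. Data were drawn from 3228 arrays in the Consortium for Functional Glycomics database, restricted to those with a known protein sequence. Scores were averaged over arrays of the same protein sequence at different concentrations or buffers, and over linkers, and negative values can be taken as non-binding.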
# Gal6S(b1-4)Glc6S = molecular target: Gal6S(b1-4)Glc6S
# In short: as §1
# Gal6S(b1-4)GlcNAc = molecular target: Gal6S(b1-4)GlcNAc
# In short: as §1
# Gal6S(b1-4)GlcNAc6S = molecular target: Gal6S(b1-4)GlcNAc6S
# In short: as §1
# GalNAc(a1-3)Gal = molecular target: GalNAc(a1-3)Gal
# In short: as §1
# GalNAc(a1-3)GalNAc = molecular target: GalNAc(a1-3)GalNAc
# In short: as §1
# [1] = molecular target: GalNAc(a1-3)GalNAc(a1-3)Gal(a1-4)Gal(b1-4)GlcNAc
# In short: as §1
# GalNAc(b1-3)Gal = molecular target: GalNAc(b1-3)Gal
# In short: as §1
# [2] = molecular target: GalNAc(b1-3)Gal(a1-4)Gal(b1-4)GlcNAc
# In short: as §1
# [3] = molecular target: GalNAc(b1-3)Gal(a1-4)Gal(b1-4)GlcNAc(b1-3)Gal(b1-4)Glc
# In short: as §1
# [4] = molecular target: GalNAc(b1-3)Gal(a1-6)Gal(b1-4)Glc
# In short: as §1
# GalNAc(b1-3)GalNAc = molecular target: GalNAc(b1-3)GalNAc
# In short: as §1
# GalNAc(b1-4)GlcNAc = molecular target: GalNAc(b1-4)GlcNAc
# In short: as §1
# [5] = molecular target: GalNAc(b1-4)GlcNAc(b1-2)Man(a1-3)[GalNAc(b1-4)GlcNAc(b1-2)Man(a1-6)]Man(b1-4)GlcNAc(b1-4)GlcNAc
# In short: as §1
# Glc(a1-4)Glc = molecular target: Glc(a1-4)Glc
# In short: as §1
# Glc(a1-6)Glc(a1-6)Glc = molecular target: Glc(a1-6)Glc(a1-6)Glc
# In short: as §1
# Glc(b1-4)Glc = molecular target: Glc(b1-4)Glc
# In short: as §1
# Glc(b1-6)Glc = molecular target: Glc(b1-6)Glc
# In short: as §1
# GlcA(b1-3)Gal = molecular target: GlcA(b1-3)Gal
# In short: as §1
# GlcA(b1-3)GlcNAc = molecular target: GlcA(b1-3)GlcNAc
# In short: as §1
# GlcA(b1-6)Gal = molecular target: GlcA(b1-6)Gal
# In short: as §1
# [6] = molecular target: GlcNAc(a1-3)Gal(b1-4)GlcNAc
# In short: as §1
# [7] = molecular target: GlcNAc(a1-4)Gal(b1-3)GlcNAc
# In short: as §1
# [8] = molecular target: GlcNAc(a1-4)Gal(b1-4)GalNAc
# In short: as §1
# [9] = molecular target: GlcNAc(a1-4)Gal(b1-4)GlcNAc
# In short: as §1
# [10] = molecular target: GlcNAc(a1-4)Gal(b1-4)GlcNAc(b1-3)Gal(b1-4)Glc
# In short: as §1
# [11] = molecular target: GlcNAc(a1-4)Gal(b1-4)GlcNAc(b1-3)Gal(b1-4)GlcNAc
# In short: as §1
# [12] = molecular target: GlcNAc(a1-4)Gal(b1-4)GlcNAc(b1-3)Gal(b1-4)GlcNAc(b1-3)Gal(b1-4)GlcNAc
# In short: as §1
# [13] = molecular target: GlcNAc(a1-4)Gal(b1-4)GlcNAc(b1-3)Gal(b1-4)[Fuc(a1-3)]GlcNAc(b1-3)Gal(b1-4)[Fuc(a1-3)]GlcNAc
# In short: as §1
# [14] = molecular target: GlcNAc(a1-6)Gal(b1-4)GlcNAc
# In short: as §1
# [15] = molecular target: GlcNAc(b1-2)Gal(b1-3)GalNAc
# In short: as §1
# [16] = molecular target: GlcNAc(b1-2)Man(a1-3)[GlcNAc(b1-2)Man(a1-6)]Man(b1-4)GlcNAc(b1-4)GlcNAc
# In short: as §1
# [17] = molecular target: GlcNAc(b1-2)Man(a1-3)[GlcNAc(b1-2)Man(a1-6)]Man(b1-4)GlcNAc(b1-4)[Fuc(a1-6)]GlcNAc
# In short: as §1
# [18] = molecular target: GlcNAc(b1-2)[GlcNAc(b1-4)]Man(a1-3)[GlcNAc(b1-2)Man(a1-6)]Man(b1-4)GlcNAc(b1-4)GlcNAc
# In short: as §1
# GlcNAc(b1-3)Gal = molecular target: GlcNAc(b1-3)Gal
# In short: as §1
# [19] = molecular target: GlcNAc(b1-3)Gal(b1-3)GalNAc
# In short: as §1
# GlcNAc(b1-3)Gal(b1-4)Glc = molecular target: GlcNAc(b1-3)Gal(b1-4)Glc
# In short: as §1
# [20] = molecular target: GlcNAc(b1-3)Gal(b1-4)GlcNAc
# In short: as §1
binder,measurement,setting,value
"SRS2 (Toxoplasma gondii), O15695 (protein) MATRASLARQKTGAACLAVLTASPSVVAAKPWKRWVGVSVILASAFAVGVSAGPPYRYEPEKFTCRPKKGILSQWVSLLYQVQHNITFACEEATPVPTTLISEEHGLMVCAENMTPEECEANPAPLSAFLPGATKEWVTGDSVLTGLKISVPESQYPANAKSFRVGCRHNTKTGNTCMLTIHVEPRDPAVERQEARCSYTENSTLPKIFVTKDSNTMTLACGPHGAPMPESYTENYCSTPDTCDEKPFTSVIPGYLSKWFFGDPKSPLGARVRIPPEQIPSSPQINYFGCTGPTEGEGPKYNCTVPVPLGGGDPSEGSRPGGGSGGGKRGGGQGGGGSLAGFDFRQGSARHSLPSRMALSASALLAMTALAY",glycan array binding signal (z-score),Gal6S(b1-4)Glc,-0.689
same,glycan array binding signal (z-score),Gal6S(b1-4)Glc6S,0.237
same,glycan array binding signal (z-score),Gal6S(b1-4)GlcNAc,-0.385
same,glycan array binding signal (z-score),Gal6S(b1-4)GlcNAc6S,-1.07
same,glycan array binding signal (z-score),GalNAc(a1-3)Gal,-0.547
same,glycan array binding signal (z-score),GalNAc(a1-3)GalNAc,0.067
same,glycan array binding signal (z-score),[1],0.55
same,glycan array binding signal (z-score),GalNAc(b1-3)Gal,-0.009
same,glycan array binding signal (z-score),[2],-0.172
same,glycan array binding signal (z-score),[3],-0.134
same,glycan array binding signal (z-score),[4],-0.675
same,glycan array binding signal (z-score),GalNAc(b1-3)GalNAc,0.471
same,glycan array binding signal (z-score),GalNAc(b1-4)GlcNAc,-0.148
same,glycan array binding signal (z-score),[5],0.894
same,glycan array binding signal (z-score),Glc(a1-4)Glc,-0.767
same,glycan array binding signal (z-score),Glc(a1-6)Glc(a1-6)Glc,-0.82
same,glycan array binding signal (z-score),Glc(b1-4)Glc,0.048
same,glycan array binding signal (z-score),Glc(b1-6)Glc,-0.375
same,glycan array binding signal (z-score),GlcA(b1-3)Gal,-0.149
same,glycan array binding signal (z-score),GlcA(b1-3)GlcNAc,-0.187
same,glycan array binding signal (z-score),GlcA(b1-6)Gal,0.072
same,glycan array binding signal (z-score),[6],-0.96
same,glycan array binding signal (z-score),[7],-0.995
same,glycan array binding signal (z-score),[8],-0.448
same,glycan array binding signal (z-score),[9],-0.377
same,glycan array binding signal (z-score),[10],-0.592
same,glycan array binding signal (z-score),[11],-0.751
same,glycan array binding signal (z-score),[12],-0.61
same,glycan array binding signal (z-score),[13],2.07
same,glycan array binding signal (z-score),[14],-0.634
same,glycan array binding signal (z-score),[15],-0.491
same,glycan array binding signal (z-score),[16],-0.439
same,glycan array binding signal (z-score),[17],14.3
same,glycan array binding signal (z-score),[18],-0.011
same,glycan array binding signal (z-score),GlcNAc(b1-3)Gal,-0.133
same,glycan array binding signal (z-score),[19],-0.462
same,glycan array binding signal (z-score),GlcNAc(b1-3)Gal(b1-4)Glc,-0.449
same,glycan array binding signal (z-score),[20],-0.083

# A stretch from further up, for reference:
binder,measurement,setting,value
"SRS2 (Toxoplasma gondii), O15695 (protein) MATRASLARQKTGAACLAVLTASPSVVAAKPWKRWVGVSVILASAFAVGVSAGPPYRYEPEKFTCRPKKGILSQWVSLLYQVQHNITFACEEATPVPTTLISEEHGLMVCAENMTPEECEANPAPLSAFLPGATKEWVTGDSVLTGLKISVPESQYPANAKSFRVGCRHNTKTGNTCMLTIHVEPRDPAVERQEARCSYTENSTLPKIFVTKDSNTMTLACGPHGAPMPESYTENYCSTPDTCDEKPFTSVIPGYLSKWFFGDPKSPLGARVRIPPEQIPSSPQINYFGCTGPTEGEGPKYNCTVPVPLGGGDPSEGSRPGGGSGGGKRGGGQGGGGSLAGFDFRQGSARHSLPSRMALSASALLAMTALAY",glycan array binding signal (z-score),[16],-0.439
same,glycan array binding signal (z-score),[17],14.3
same,glycan array binding signal (z-score),[18],-0.011
